In PMC8703873, “Structure and Activity of a Selective Antibiofilm Peptide SK-24 Derived from the NMR Structure of Human Cathelicidin LL-37” (Pharmaceuticals, 2021):

Assay: Circular dichroism: helicity, R1 and R2 in PBS or SDS micelles
Format: physicochemical
Settings: for Helicity: estimated from the 222 nm band
[1] = 60 mM SDS micelles, 0.5 mM peptide, 10 mM PBS pH 7, 25 °C
[2] = PBS: 0.5 mM peptide in 10 mM PBS, pH 7, 25 °C

CC[C@H](C)[C@H](NC(=O)[C@H](CCCCN)NC(=O)[C@H](CCC(=O)O)NC(=O)[C@H](CCCCN)NC(=O)[C@H](CO)NC(=O)[C@H](CCCCN)NC(=O)[C@H](CCCNC(=N)N)NC(=O)[C@H](Cc1ccccc1)NC(=O)[C@H](Cc1ccccc1)NC(=O)[C@H](CC(=O)O)NC(=O)CNC(=O)[C@H](CC(C)C)NC(=O)[C@@H](N)CC(C)C)C(=O)NCC(=O)N[C@@H](CCCCN)C(=O)N[C@@H](CCC(=O)O)C(=O)N[C@@H](Cc1ccccc1)C(=O)N[C@@H](CCCCN)C(=O)N[C@@H](CCCNC(=N)N)C(=O)N[C@H](C(=O)N[C@H](C(=O)N[C@@H](CCC(N)=O)C(=O)N[C@@H](CCCNC(=N)N)C(=O)N[C@H](C(=O)N[C@@H](CCCCN)C(=O)N[C@@H](CC(=O)O)C(=O)N[C@@H](Cc1ccccc1)C(=O)N[C@@H](CC(C)C)C(=O)N[C@@H](CCCNC(=N)N)C(=O)N[C@@H](CC(N)=O)C(=O)N[C@@H](CC(C)C)C(=O)N[C@H](C(=O)N1CCC[C@H]1C(=O)N[C@@H](CCCNC(=N)N)C(=O)N[C@H](C(=O)N[C@@H](CCC(=O)O)C(=O)N[C@@H](CO)C(=O)O)[C@@H](C)O)C(C)C)[C@@H](C)CC)C(C)C)[C@@H](C)CC [LL-37]
R1 (molar ellipticity ratio 192/208) [1]: −2.08
Helicity [1]: 97.2%
helix% in phosphate buffer (PBS, 0.5 mM peptide): 84%
R1 (molar ellipticity ratio 192/208) [2]: −1.94
Helicity [2]: 83.8%
